Among the data in patent US20100087466A1 (priority 2008, published 2010) are step yield, isolated mass and isolated yield values, retold here.

*: point of attachment. Pbf = Cc1c(C)c(S(=O)(=O)*)c(C)c2c1OC(C)(C)C2; Octanoyl = CCCCCCCC(=O)*; Cbz = O=C(OCc1ccccc1)*; Boc = CC(C)(C)OC(=O)*; Bn = c1ccc(C*)cc1; NHBu = CCCCN*

The first data set is described as follows: peptide synthesis. Conditions: coupling step, TFA.
Regarding “Ac-Tyr(Bzl)-Leu-Pro-Orn(2-pyrimidine)-Pro-NH(CH2)3Ph”, the step yield is 50%.

For “Ac-Tyr(Bzl)-Leu-Pro-Orn(Boc)-Pro-NH(CH2)3Ph”, the step yield is recorded as 100%.

Ac-Y(Bn)LPR(Pbf)-OMe registered a step yield of 79%.

In the case of Ac-Y(Bn)LPR(Pbf)P-OMe, the step yield is listed as 88%.

On to Boc-Leu-Pro-Arg(bis-Cbz)-Pro-OMe, for which the step yield was determined as 95%.

Take “Boc-Tyr(Bzl)-Leu-Pro-Arg(bis-Cbz)-Pro-OMe”: the step yield turned out to be 100%.

The next data set can be described thus: Fmoc solid-phase peptide synthesis; rink amine AM resin; PyBOP/HOBt/DIEA (SPPS); BOP/DIEA (solution phase). Conditions: whole synthesis, scale 100 mg @ 0.68 mmol/g, TFA.
In turn, Ac-Tyr-Leu-pro-Arg-Pro-NH2 registered an isolated mass of 15.2 mg and an isolated yield of 36%.

The nature of a further data set: general procedure: Fmoc solid-phase peptide synthesis; rink amide AM resin (0.68 mmol/g); PyBOP/HOBt/DIEA (SPPS); BOP/DIEA (solution phase). Conditions: coupling step, TFA.
On to “3-(Octylamido)-nicotinoyl-Tyr(Bzl)-Leu-Pro-Arg(Pbf)-OMe”, for which the step yield came out at 93%.

Turning to “Octanoyl-Tyr(Bzl)-Leu-Hyp-Arg(Boc)2N(CH2)5”, the step yield amounted to 84%.

With Octanoyl-Y(Bn)LPR(Pbf)-OMe, the step yield is 96%.

The data set is the same for the next values; noted with them: late stage modification step, TFA.
In turn, Ac-Tyr(Bzl)-Leu-Pro-Arg(Pbf)-N(CH2)5 gave a step yield of 100%.

On to “Ac-Tyr(Bzl)-Leu-Pro-Arg(Pbf)-Pro-NH(CH2)3Ph”, for which the step yield is recorded as 92%.

Take Ac-Tyr(Bzl)-Leu-Pro-Orn-Pro-NH(CH2)3Ph: the step yield was determined as 64%.

Substance Ac-Tyr-Leu-Pro-Arg(Pbf)-N(CH2)5 yielded a step yield of 77%.

Consider Ac-Tyr-Leu-Pro-Orn(Boc)-Pro-NH(CH2)3Ph, for which the step yield is on record as 45%.

Ac-Tyr-Leu-Pro-Orn-Pro-NH(CH2)3Ph had a step yield of 75%.

For the substance Ac-Y(Bn)LPR(Pbf)-OH, the step yield is reported as 83%.

For Ac-Y(Bn)LPR(Pbf)P-NHBu, the step yield is 94%.

Substance Ac-Y(Bn)LPR(Pbf)P-OH came in with a step yield of 90%.

“Boc-Tyr(Bzl)-Leu-Pro-Arg(Cbz)-Pro-NH(CH2)3Ph” registered a step yield of 75%.

Boc-Tyr-Leu-Pro-Arg-Pro-NH(CH2)3Ph returned a step yield of 39%.

The substance Boc-Y(Bn)LPR(Cbz)P-OH registered a step yield of 70%.

Substance “Octanoyl-Tyr(Bzl)-Leu-Pro-Arg(Pbf)-N(CH2)5” yielded a step yield of 89%.

Regarding Octanoyl-Y(Bn)LPR(Pbf)-OH, the step yield came out at 92%.

Still in this data set, the particulars now being: late stage modification step, TFA salt.
Turning to Ac-Tyr-Leu-Pro-Arg-N(CH2)5.TFA, the step yield is given as 81%.

On to Ac-Tyr-Leu-Pro-Arg-Pro-NH(CH2)3Ph.TFA, for which the step yield was determined as 56%.

Regarding Ac-Tyr-Leu-Pro-Arg-Pro-NHBu.TFA, the step yield came out at 63%.

Staying with this data set, now noted: late stage modification step, trifluoroacetate salt.
Regarding “3-(Octylamido)-nicotinoyl-Tyr(Bzl)-Leu-Pro-Arg-OMe trifluoroacetate”, the step yield was 45%.

Take “Octanoyl-(D)-Tyr(Bzl)-Leu-Pro-Arg-OMe trifluoroacetate”: the step yield turned out to be 13%.

Regarding “Octanoyl-Tyr(Bzl)-Leu-Hyp-ArgN(CH2)5 trifluoroacetate”, the step yield came out at 48%.

In the case of “Octanoyl-Tyr(Bzl)-Leu-Pro-Arg-N(CH2)5 trifluoroacetate”, the step yield is 28%.

“Octanoyl-Tyr(Bzl)-Leu-Pro-Arg-OMe trifluoroacetate”: the step yield is reported as 58%.

As for “Octanoyl-Tyr-Leu-Pro-Arg-N(CH2)5 trifluoroacetate”, the step yield worked out at 18%.
